Laboratory results reported in patent publication US6613756B2 (Wisconsin Alumni Research Foundation, priority 2000, dated 2003).
Structures can show the parent of a compound that is named as a salt. At least one structure is not confirmed: it was looked up by name or label, or the drawing left a doubt.

Legend:
[1] = tested on: microglia; conditions: gerbil brain; Yrjänheikki et al. 1998; cited from earlier work
[2] = tested on: DA rats with MOG-induced EAE; assay: Low-dose MOG (10 μg rMOG/CFA) immunization paradigm of relapsing remitting EAE; type: in vivo, rat
Method: Experiments were performed on 6-8 week old female DA rats obtained from Harlan-Sprague Dawley, Indianapolis, Ind. or Harlan-Winkelmann, Germany. During the observation period, rats were housed in a light- and temperature-controlled environment and were permitted free access to food and water. The recombinant extracellular immunogobulin domain of MOG was expressed in E. coli and purified as described previously (Raine, C. S., et al., Ann. Neurol. 46:144-160, 1999).
Rats were immunized sub-cutaneously (s.c.) at the base of the tail with either 10 μg MOG in complete Freund's adjuvant (CFA) or 100 μg MOG emulsified in incomplete Freund's adjuvant (IFA) (Difco, Detroit, Mich.) in a total volume of 100 μl. Animals were weighed and examined daily for clinical signs of EAE that was scored on the following scale: 0.5, partial loss of tail tone; 1, complete tail atony; 2, hind limb weakness; 3, hind limb paralysis; 4, moribund; 5, dead. […]
Matched unimmunized, naive groups were also included: N^pbs-PBS-treated animals (n=10), N^tr1-minocycline-treated from experimental day 10 (n=10), N^tr2-minocycline-treated from experimental day 13 (n=5), N^tr3 minocycline-treated from experimental day 13, with twice daily injections during the first two days followed by single injection throughout the remaining treatment period (n=5).
Animals were deeply anesthetized with pentobarbital and perfused transcardially with Ringer's followed by 4% paraformaldehyde. The brain and spinal cord were removed and prepared for paraffin and epon embedding or cryo-protected in 30% sucrose. Paraffin sections were used to assess the degree of inflammation (hematoxylin and eosin) and one-micron semithin sections were used to estimate the demyelination in the spinal cord (toluidine blue). Areas with inflammatory infiltrates or demyelinating lesions in the dorsal funiculus of spinal cord were scored using a CCD72 camera to collect digital images that were analyzed with the Microcomputer Imaging Device (MCID) software from Imaging Research Inc. (St. Catherines, Ontario). Measurements for cell infiltrates and demyelination were expressed as percent of the total white matter area of the dorsal funiculus. To determine the profile of inflammatory infiltrates within lesions 10 μm cryostat sections of thoracic-lumbar spinal cord were immunolabelled for MHC II (Harlan Sera-Lab), CR3, CD45 (Serotec), GFAP (Dako), CD3 (PharMingen) and MMP-2 (Oncogne Research Products) protein expression. Primary antibodies were detected using a biotinylated secondary antibodies and the avidin: biotin enzyme complex technique (Vector Laboratories). Areas with immunolabelling-defined inflammatory infiltrates were scored using a semi-quantitative scale: 0-no inflammatory infiltrates or lesions, 1-25%, 2-50%, 3-75%, and 4-100% of the dorsal funiculus.
Statistical analysis of clinical scores was performed by averaging them over all times of the treatment and subtracting the first 11 days after immunization when clinical score in all groups was 0. Statistical significance was established using a repeated measures analysis where clinical score between treatments was compared from day 12 to 42 building in an auto-correlation of the error term. ANOVA and Student's t-test were used to establish the difference between experimental groups in all other examined parameters. Statistically significant differences were presented as: * for P<0.05, ** for P<0.01, and *** for P<0.001.

[3] = tested on: transgenic mouse model of Huntington's disease; conditions: Chen et al. 2000; cited from earlier work
[4] = tested on: MOG-specific T-cell response; assay: MOG-specific T-cell response of draining lymph node cells from treated rats; type: cell-based, rat; conditions: lymph node cells 10 d.p.i.
Method: Draining lymph nodes and spleens were removed 10 days post-immunization (d.p.i.) and proliferation assays performed in flat-bottomed 96-well tissue culture plates in a total volume of 200 μl using either 5×10^5 lymph node or spleen cells (Raine, C. S., et al., supra, 1999). Antigen specific proliferation was assessed by the incorporation of ^3H-thymidine (10 μCi/well) during the final 18 hours of a 72 hour culture period using a Packard Matrix 96 Direct Beta counter.

[5] = tested on: DA rats with MOG-induced EAE; assay: High-dose MOG (100 μg rMOG/IFA) immunization paradigm of EAE; type: in vivo, rat
[6] = tested on: MOG-specific antibody response; assay: Anti-MOG serum IgG ELISA in treated rats; type: in vivo, rat; conditions: high-dose MOG; minocycline day 1 to 10

For CN(C)c1ccc(O)c2c1C[C@H]1C[C@H]3[C@H](N(C)C)C(O)=C(C(N)=O)C(=O)[C@@]3(O)C(O)=C1C2=O [Minocycline, Minocycline hydrochloride], the “activation of microglia around stroke lesions” value [1] is listed as “could prevent activation of microglia”, the “levels of CR3 and MHC class II specific staining in dorsal funiculus” value ([2]; EAEtr1 and EAEtr2 treatment paradigms) is listed as “significantly reduced” and the “efficacy of EAEtr3 treatment in comparison with EAEtr2” value ([2]; clinical disease score, P<0.01) is listed as “significantly more effective”. The “signs of inflammation and demyelination in spinal cord (histology)” value ([2]; minocycline at onset of disease (EAEtr2)) was “very mild signs”, the “signs of inflammation and demyelination in spinal cord (histology)” value ([2]; minocycline before onset of disease (EAEtr1)) was “absence of signs” and the “mean maximal clinical score versus sham-treated controls” value ([2]; treatment from clinical grade 1 disease (EAEtr2), P<0.001) was “significantly reduced”. For the same molecule, the “disease progression during remainder of study period” value ([2]; treatment from onset (EAEtr2)) was “no further disease progression”, the “disease activity versus sham-treated controls” value ([2]; treatment started two to three days before expected onset (EAEtr1), P<0.001) was “significantly suppressed disease activity” and the disease progression [3] was “delays disease progression”. For the same molecule, the “antigen specific T-cell response by proliferation or synthesis of IFN-y and IL-10” value [4] was “did not suppress”, the disease onset ([5]; daily prophylactic minocycline from the day after immunization) was “delayed” and the “MMP-2 expression in spinal cord (immuno-labeling)” value ([5]; high dose MOG, twenty days after immunization) was “absent”. For the same molecule, the “health status of animals by 20 d.p.i.” value ([5]; minocycline from day 1, PBS controls in relapse) was “all animals were healthy”, the “clinical course of EAE versus PBS-treated rats” value ([5]; minocycline from day 1 post-immunization, P<0.01) was “significantly less severe” and the “MOG-specific antibody response (ELISA)” value [6] was “slight reduction”.
